Test results as given in PMC10163288.
The other results are listed elsewhere or left out.

B1: il10ra_site1_sap_21_mot_HHH_b2_00564_af2_000000012_0001_18_34_H_._HHH_b2_02403_af2_0001_0000100003_0000002_0_0001_af2pred_0001 (protein)
chain: SDEWEELKRALEELYEKAEENNNPDVRKAARLALEILRKATETNDEELLEVVKLLLRIIEALCSS
B2: il10ra_site1_sap_11_mot_HHH_b2_03220_af2_000000223_0001_23_40_H_._HHH_b1_03120_0001_0000200022_0000002_0_0001 (protein)
chain: SSSSDVAQRIAELLRKAVELDNEGNPEEAEELVEEALELAEERNNDVLRMQAEYLLKIVRSSSSS
B3: il10ra_site1_sap_20_mot_HHH_b1_05426_000000183_0001_42_56_H_._HHH_b1_08425_af2_0001_0000600024_0000001_0_0001_af2pred_0001 (protein)
chain: SSSSSRAEELAEAAKRFLEWLLKEGDPEAARFIAEAAIQALRNLGNPELAEQIEELYEELSSSSS
B4: il10ra_site1_normal_mot_HHH_b2_02386_000000054_0001_1_20_H_._HHH_b1_04169_af2_0002_0000100008_0000002_1 (protein)
chain: SSSSDESEEILQEAREEIEKLLEEGNSDEAYKVARRAIELLIELGDTEALQELQEFFLRISSSSS
B5: il10ra_site1_sap_24_mot_2c1a291787c6f40772924d4e9068d803_0001_af2_000000187_0001_34_48_H_._7562c6833517c195a8c4e1ae8d74ecad_0001_0001_0000400024_0000001_0_0001 (protein)
chain: SSSSSRTEKALEILKRAIELAGNPELAERVEELLERYKEEGDNRYLWEAFELFREAMRLSESSSS
B6: il10ra_site1_sap_20_mot_HHH_b1_03900_000000129_0001_1_16_H_._HHH_b1_01355_af2_0001_0000600019_0000001_0_0001 (protein)
chain: SSSSSEEEQELLELIHQVIELALRGDEEELRELLERALELAEKLNDEKAALNLRNLLEILSSSSS
B7: il10ra_site1_normal_mot_HHH_b2_07144_000000289_0001_1_18_H_._HHH_b1_08187_0001_0000200013_0000001_0 (protein)
chain: SSSSDESQELYKISREIAELLRNGNPEEARELLEELKELAEERNNPIIEAAVRALERALKSSSSS
B8: il10ra_site1_sap_20_mot_HHH_b2_00479_000000091_0001_1_12_H_._HHH_b2_03507_af2_0001_0000700033_0000001_1_0001_af2pred_dldesign_0_af2pred (protein)
chain: SSSSDPEAELEELLAQLKAAGDADAVANVERLKELAEKEKNPELLRLANLYAKYALEAKKSSSSS
B9: il10ra_site1_normal_mot_HHH_b2_07488_000000216_0001_1_17_H_._20bd334181f53d5e88893876e50d2750_0001_af2_0001_0000100001_0000002_0 (protein)
chain: DPEVKEVLEEVKEKFKDDPKARLAVRFAEALLEAGNPEAALSLLRQLAQALGDPELLEKVEELLK
B10: il10ra_site1_normal_mot_HHH_b2_03220_af2_000000223_0001_23_40_H_._HHH_b2_07925_0001_0000200018_0000002_0 (protein)
chain: SSSSDDENEEIWRLLRELLELLFEGDEEQLEELLKEIEKLIEEANSEVFRFSLRAVKKALSSSSS
B11: il10ra_site1_normal_mot_HHH_b1_02397_af2_000000085_0001_39_57_H_._HHH_b2_02616_af2_0001_0000500019_0000002_0 (protein)
chain: SSSSDAEERLKELLEELEELLEEGDRERFARVAQEILRLAFELGDEEALRIVWELVQALYSSSSS
B12: il10ra_site1_sap_23_mot_HHH_b1_08616_000000009_0001_1_19_H_._HHH_b2_04715_af2_0001_0000100004_0000001_0_0001 (protein)
chain: SSSSSDQEEQLIRALLWFAEWTSNPTARRLMLEQAERHARELGNEELREEVERVEKELEESSSSS
B13: il10ra_site1_normal_mot_HHH_b1_00992_000000182_0001_23_40_H_._HHH_b1_04461_0001_0000500022_0000001_0 (protein)
chain: SSSSSSEYLELSLRFAKALLRSGDPEAARRILEAAIQIAEREGDPELLEQLEELLEEIENSSSSS
B14: il10ra_site1_normal_mot_7f9b3cf633cfd27bca007b62ade1be3b_0001_1_000000138_0001_17_32_H_._HHH_b2_08183_0001_0000100015_0000001_0 (protein)
chain: SSSSSEAEITLRFLILSLEIAEELNDEEQLRAALRFLESLAKEANDEEAQEVVEEIRERFSSSSS
B15: il10ra_site1_normal_mot_HHH_b2_03038_000000109_0001_1_20_H_._HHH_b2_04520_0001_0000200024_0000001_0 (protein)
chain: SSSSDEAEELYKLSREINELIREGDDEEARELLEEARELAEEAGNENFRHILEFLKRLLESSSSS
B16: il10ra_site1_normal_mot_HHH_b1_05860_000000142_0001_1_19_H_._HHH_b1_05723_0001_0000200010_0000002_0 (protein)
chain: SSSSDSEEIYRLLREVLELLDEGDQEEAEKLIEEIRRLIEEAGNFVAEFALRLIEQDLEYRSSSS
B17: il10ra_site1_normal_mot_HHH_b2_03183_af2_000000055_0001_40_56_H_._HHH_b2_03444_0001_0000300011_0000002_1 (protein)
chain: SSSSSSTEEELLRAALRLLEQAPDPETRRALEIAIEILAREVGDEEVEEELERLREELSSSSSSS
B18: il10ra_site1_normal_mot_HHH_b1_06914_000000280_0001_1_18_H_._HHH_b1_05152_0001_0000100003_0000001_0 (protein)
chain: SSSSSDETEEIYELSRKALEIRKEDPEEAKELLERALELAEEINSFALAFAVRLALEDLSSSSSS
B19: il10ra_site1_sap_21_mot_HHH_b1_04771_000000013_0001_40_56_H_._HHH_b2_04143_af2_0001_0000300004_0000002_0_0001_af2pred_0001 (protein)
chain: SSSSDKVVERVIKLLREALRLAREGNPEEAEKLLEEAQELAEENNDEYLERVIKFAEHALRSSSS
B20: il10ra_site1_normal_mot_HHH_b2_07540_000000184_0001_1_15_H_._HHH_b1_07591_af2_0001_0000600016_0000001_0 (protein)
chain: SSSSDAEEIVEEAEEELRRLLEEGDPDEAYRVLKEAIQLLAELGNPELARELSRYFLELLSSSSS
B21: il10ra_site1_normal_mot_e933875d0a4b1ebfe8e667f01481c16a_0001_1_af2_000000222_0001_49_63_H_._HHH_b2_03305_0001_0000100007_0000001_0_af2pred_0001 (protein)
chain: SSSSSSKAERLYELSREAIELLRKGNPEEAEKLLEEAEELAEEANDLNSLVVIEFILKRVSSSSS
B22: il10ra_site1_normal_mot_HHH_b1_01879_000000050_0001_1_18_H_._HHH_b2_08350_0001_0000200021_0000001_0_af2pred_dldesign_0_af2pred (protein)
chain: SSSSDLEKEVWDKLVEIYRLLQAGKPEEARELLEELRALAEATKNAKALRRVEAAEIFMKESSSS
B23: il10ra_site1_sap_18_mot_HHH_b1_06789_af2_000000041_0001_1_20_H_._HHH_b2_02597_af2_0001_0000400018_0000001_0_0001 (protein)
chain: SSSSSEEHEELYRLLRAVVELDLDGDPEEAREVLEEVREIAEEANDQLFLRQVEFLLKLLDSSSS
B24: il10ra_site1_normal_mot_HHH_b1_04771_000000013_0001_40_56_H_._HHH_b2_02427_0001_0000300022_0000001_0 (protein)
chain: SSSSSDREEVLKLSQEAFRLALRGNPEEARKVLEEALELAEELGNERAARVIKDLLEVLNSSSSS

What follows are binders tested against il10ra, Q13651 (assay: yeast display titration).

Apparent Kd, inactive:
B1 no binding seen, B2 no binding seen, B3 no binding seen, B4 no binding seen, B5 no binding seen, B6 no binding seen, B7 no binding seen, B8 no binding seen, B9 no binding seen, B10 no binding seen, B11 no binding seen, B12 no binding seen, B13 no binding seen, B14 no binding seen, B15 no binding seen, B16 no binding seen, B17 no binding seen, B18 no binding seen, B19 no binding seen, B20 no binding seen, B21 no binding seen, B22 no binding seen, B23 no binding seen, B24 no binding seen
